In doi:10.1101/2023.11.29.569176:
These are yes or no findings as the source states them, for the method shown. Binding calls can cover weak binding; strength is not graded here. Sequences can lack the tags named with a protein.

Molecular target: RomR-PopZ^H3H4-GFP bait fusion protein (Bdellovibrio bacteriovorus)
Experiment: POLAR

B1: SgmX (Bd2492) fused to mScarlet (protein, UniProt Q6MKB3 1-353)
chain: MSTYIELEIQNLLNQGSDQNIDLAEVATRLVSSIESSPDHFTLDNITALSRFLIQSGNELVLVEFVLRHLENESFPIPWPYFLEALSAFSEELDEKSVRALIDGIEEDGAQEEASRSLALRQTIQSLGEWRSNRKYKIHKDYLNNKRLLLDQLITLRTQQLYEQEKSLLARLQKLYPGDSDIRREVNEHKQRYALEILSRRTPRSRGVKTEDFSPKDPETEQALQVLMQSMHEHAETDPSMAFDFAIAAYMLESYEDALSLLSFSDESETLIWFRLEVLLKCRRFVELLTDLAKVEVVFAHEPETFFATAYLRAQALWGLGQKHTAIEVMEGLLAARPHYRAASALLSIWGGQ
binding: binds
